Results from the supplement of paper PMC12067093, “Discovery and optimisation of a covalent ligand for TRIM25 and its application to targeted protein ubiquitination” (Chemical Science, 2025).
The other results are listed elsewhere or left out.

Compound: Cc1cc(ccc1-c1ccccc1)C(=O)N1CCCN(CC1)C(=O)CCl [compound 10]
Assay: probe-labelled cysteine peptide fold change vs DMSO (competition) (log2 fold change); higher = less target engagement (more negative = stronger competition)
Conditions: THP-1, incubation time: 4 h
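Further: competitive profiling in live THP-1 cells: cysteine peptides tagged with an iodoacetamide desthiobiotin (IA-DTB) probe, intensity after compound treatment relative to DMSO-treated cells.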

Row | Target | probe-labelled cysteine peptide fold change (10 µM) | probe-labelled cysteine peptide fold change (50 µM)
1 | CFL1_P23528_39_AVLFCLSEDKK (UniProt P23528) | -0.0528 | -0.132
2 | CIAO3_Q9H6Q4_246_IYHVTVMPCYDK (UniProt Q9H6Q4) | -0.227 | -0.28
3 | CLIC4_Q9Y696_189_FLDGNEMTLADCNLLPK (UniProt Q9Y696) | -0.0734 | -0.181
4 | CLCC1_Q96S66_60+67_DVSPDLSCADEISECYHK (UniProt Q96S66) | -0.434 | -0.129
5 | CLUH_O75153_1196_CLTQQAVALQR (UniProt O75153) | -0.181 | -0.0272
6 | CIT_O14578_1272_CAELEEALQK (UniProt O14578) | 0.183 | 0.105
7 | CLASP2_O75122_221_LIPLITSNCTSK (UniProt O75122) | -0.0194 | 0.0911
8 | CINP_Q9BW66_81_VCLEYNEELEK (UniProt Q9BW66) | -0.136 | -0.189
9 | CIT_O14578_1655_ALCLVDVKK (UniProt O14578) | 0.137 | -0.115
10 | CISD3_P0C7P0_100_MVALCTCK (UniProt P0C7P0) | 0.0463 | -0.0222
11 | CHD2_O14647_500_DYQLEGLNWLAHSWCK (UniProt O14647) | 0.186 | 0.216
12 | CIAPIN1_Q6FI81_237_AASCGEGK (UniProt Q6FI81) | -0.202 | -0.685
13 | CHAMP1_Q96JM3_592_CDILVQEELLASPK (UniProt Q96JM3) | -0.173 | -0.0899
14 | CIAO1_O76071_245_CICTLSGFHSR (UniProt O76071) | -0.0431 | -0.0194
15 | CHML_P26374_187_TCMHTVSDK (UniProt P26374) | -0.0578 | 0.0466
16 | CLIC1_O00299_89_IEEFLEAVLCPPRYPK (UniProt O00299) | 0.24 | 0.312
17 | CHI3L1_P36222_26_LVCYYTSWSQYR (UniProt P36222) | -0.287 | 0.142
18 | CLPB_Q9H078_446_QCPNAVVLFDEVDK (UniProt Q9H078) | -0.263 | 0.128
19 | CHD3_Q12873_1464_HLCEPGADGSETFADGVPR (UniProt Q12873) | -0.22 | 0.0467
20 | CLASP1_Q7Z460_1212_ECDIVSR (UniProt Q7Z460) | -0.0347 | -0.209
21 | CHTF18_Q8WVB6_373_VALLCGPPGLGK (UniProt Q8WVB6) | 0.0809 | 0.0137

Row | Target | probe-labelled cysteine peptide fold change (10 µM) | probe-labelled cysteine peptide fold change (50 µM)
22 | CHD9_Q3L8U1_993_CVIIDEAHR (UniProt Q3L8U1) | -0.188 | -0.144
23 | CHD1L_Q86WJ1_123_FAPGLSCVTYAGDK (UniProt Q86WJ1) | 0.111 | 0.441
24 | CHD4_Q14839_1468_HLCEPGADGAETFADGVPR (UniProt Q14839) | -0.0123 | 0.148
25 | CIAO1_O76071_308_VFQEDPNSDPQQPTFSLTAHLHQAHSQDVNCVAWNPK (UniProt O76071) | 0.1 | 0.0187
26 | CHCHD3_Q9NX63_204+214_CSALATQYMHCVNHAK (UniProt Q9NX63) | -0.255 | -0.00818
27 | CHFR_Q96EP1_95_KQTCPLQTGDVIYLVYR (UniProt Q96EP1) | -0.0947 | -0.633
28 | CHORDC1_Q9UHD1_211_KTSDFNTFLAQEGCTK (UniProt Q9UHD1) | 0.0992 | -0.299
29 | CLNS1A_P54105_73_DRSDCLGEHLYVMVNAK (UniProt P54105) | -0.0404 | -0.327
30 | CMC1_Q7Z7K0_31_CSEQVQDFTK (UniProt Q7Z7K0) | -0.448 | -0.108
31 | CHERP_Q8IWX8_246_VVVPIYCTSFLAVEEDK (UniProt Q8IWX8) | 0.0369 | 0.0109
32 | CFL1_P23528_147_CTLAEK (UniProt P23528) | -0.206 | -0.169
33 | CLTCL1_P53675_778_LTDQLPLIIVCDR (UniProt P53675) | 0.174 | 0.821
34 | CLIC1_O00299_59_LCPGGQLPFLLYGTEVHTDTNK (UniProt O00299) | 0.0472 | 0.477
35 | CLEC11A_Q9Y240_177_LEGCLK (UniProt Q9Y240) | -0.227 | -0.0167
36 | CHD2_O14647_365_VSPEDVEYFNCQQELASELNK (UniProt O14647) | -0.23 | 0.0695
37 | CGAS_Q8N884_446_TAFFHVCTQNPQDSQWDRK (UniProt Q8N884) | -0.0481 | 0.066
38 | CIT_O14578_1655_ALCLVDVK (UniProt O14578) | 0.383 | 0.309
39 | CHST11_Q9NPF2_89_RDQVTDTCR (UniProt Q9NPF2) | -0.188 | -0.00933
40 | CHTF8_P0CG13_83_HTPGDQDCDELGR (UniProt P0CG13) | 0.278 | 0.369
41 | CIAPIN1_Q6FI81_249+251_NCTCGLAEELEK (UniProt Q6FI81) | -0.0271 | -0.453

From no. 29 to 39, copied from above:
Row | Target | probe-labelled cysteine peptide fold change (10 µM) | probe-labelled cysteine peptide fold change (50 µM)
29 | CLNS1A_P54105_73_DRSDCLGEHLYVMVNAK (UniProt P54105) | -0.0404 | -0.327
30 | CMC1_Q7Z7K0_31_CSEQVQDFTK (UniProt Q7Z7K0) | -0.448 | -0.108
31 | CHERP_Q8IWX8_246_VVVPIYCTSFLAVEEDK (UniProt Q8IWX8) | 0.0369 | 0.0109
32 | CFL1_P23528_147_CTLAEK (UniProt P23528) | -0.206 | -0.169
33 | CLTCL1_P53675_778_LTDQLPLIIVCDR (UniProt P53675) | 0.174 | 0.821
34 | CLIC1_O00299_59_LCPGGQLPFLLYGTEVHTDTNK (UniProt O00299) | 0.0472 | 0.477
35 | CLEC11A_Q9Y240_177_LEGCLK (UniProt Q9Y240) | -0.227 | -0.0167
36 | CHD2_O14647_365_VSPEDVEYFNCQQELASELNK (UniProt O14647) | -0.23 | 0.0695
37 | CGAS_Q8N884_446_TAFFHVCTQNPQDSQWDRK (UniProt Q8N884) | -0.0481 | 0.066
38 | CIT_O14578_1655_ALCLVDVK (UniProt O14578) | 0.383 | 0.309
39 | CHST11_Q9NPF2_89_RDQVTDTCR (UniProt Q9NPF2) | -0.188 | -0.00933
